PMC12126226
Results are given in words; binding and its absence hold for the method and conditions named. For some of these results: Binding seen in cells or lysates may run through a third protein. Some entries that bind do so weakly or less than the wild type. Blank lines part the entries; values can stand above or below the substance they belong to.

Sequences of proteins named here, by UniProt entry; tags and fusion partners are left off.
UniProt P49773: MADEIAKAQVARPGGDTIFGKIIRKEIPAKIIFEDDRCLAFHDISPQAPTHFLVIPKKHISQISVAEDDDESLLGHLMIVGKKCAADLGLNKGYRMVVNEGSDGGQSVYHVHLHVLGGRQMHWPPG
UniProt P05549: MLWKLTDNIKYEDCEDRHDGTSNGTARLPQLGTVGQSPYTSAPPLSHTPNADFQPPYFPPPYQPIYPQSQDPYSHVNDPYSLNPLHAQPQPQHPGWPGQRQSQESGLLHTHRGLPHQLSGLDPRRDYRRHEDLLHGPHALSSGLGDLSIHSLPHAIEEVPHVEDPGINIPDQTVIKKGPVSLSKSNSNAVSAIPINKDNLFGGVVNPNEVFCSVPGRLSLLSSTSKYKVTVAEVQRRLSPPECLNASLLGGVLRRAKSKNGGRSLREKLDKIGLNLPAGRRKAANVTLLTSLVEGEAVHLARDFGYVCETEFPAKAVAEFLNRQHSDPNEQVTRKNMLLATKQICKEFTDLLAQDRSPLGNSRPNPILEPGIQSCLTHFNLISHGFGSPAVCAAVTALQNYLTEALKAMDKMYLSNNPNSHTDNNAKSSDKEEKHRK

Assays:
[1] = biological target: HA-tagged HINT1 (UniProt P49773); experiment: co-IP; HEK293T cells cotransfected with Flag-TFAP2A and HA-HINT1 plasmids; immunoprecipitated by HA antibody (Figure 6J) or Flag antibody
[2] = biological target: Flag-tagged TFAP2A (UniProt P05549); experiment: as above
[3] = biological target: purified HINT1 protein (UniProt P49773); experiment: co-IP; in vitro binding assay of purified HINT1 and GST-TFAP2A protein; immunoprecipitated by HINT1 antibody; both purified
[4] = biological target: histidine triad nucleotide-binding protein 1 (HINT1), endogenous in human aortic smooth muscle cells (human (endogenous in HASMCs)) (UniProt P49773); experiment: co-IP; endogenous proteins in HASMCs; immunoprecipitated by HINT1 antibody; cells with PBS or PDGF-BB stimulation for 4 hours, Ang II stimulation, or NUP98 knockdown by siRNA with PDGF-BB

binding [1]: binds
Substance: Flag-tagged TFAP2A (from UniProt P05549 1-437)

binding [2]: binds
Substance: HA-tagged HINT1 (from UniProt P49773 1-126)

binding [3]: binds
Substance: purified GST-TFAP2A protein (from UniProt P05549 1-437)

binding [4]: binds
Substance: transcription factor AP-2 α (TFAP2A), endogenous in human aortic smooth muscle cells (from UniProt P05549 1-437)
